Reference: PubChem BioAssay AID493014 (National Center for Advancing Translational Sciences (NCATS), 2011)
Hit rate of the full screen: of about 340,000 compounds, about 170 (0.05%) were called active. Inconclusive means that the source gave no clear call. Such entries were picked first, then a sample of the others. Calls come from the whole dose curve; as a rule, active = well fitted inhibition curve with a large enough effect in the signal ratio, with a control signal flat (not every such curve was filed as active); inconclusive = small, poorly fitted or top-dose-only effect, or effect the other way, or a change in a side signal; inactive = flat fitted curve, though single readings scatter; the % refers to the signal ratio. A potency beside an inconclusive call is a rough fit, not a confirmed value.

assay: qHTS Assay to Find Inhibitors of Chronic Active B-Cell Receptor Signaling; conditions: ABC-DLBCL IkBa-CBG/CBR reporter, luminescence ratio (green luciferase fused to IkBa over red control in TMD8 lymphoma cells), 4 h; activity change, negative = inhibition: at 46.1 µM (top of the series);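 for activity change, negative = inhibition: plate controls were basal doxycycline-induced cells for no effect and cells given 10 µM MG132 for full effect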
Summary of the method: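 Cell line TMD8 (human ABC DLBCL), stably expressing tet-inducible CBG68-IkBa fusion and CBR; IMDM/0.5% FBS; cpd up to 46 uM; dox induction, 4 h, 37C/5% CO2; dual luminescence; green/red ratio; MG132 control.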
Potency is the fitted concentration of half-maximal effect.

Compound | activity change, negative = inhibition | Potency
CCc1ccc(S(=O)(=O)NC2CC(C)(C)NC(C)(C)C2)cc1 | inactive: -0.957% | 
CNC(=S)N(CCc1c(C)[nH]c2ccc(C)cc12)Cc1cccs1 | inconclusive: -5.72% | 
c1ccc(C2=NNC(c3ccco3)=Nc3ccccc32)cc1 | inactive: -12.7% | 
O=C(COC(=O)c1ccc(S(=O)(=O)N2CCOCC2)cc1)Nc1nc(-c2ccccc2)cs1 | inconclusive: 11.5% | 
COc1ccc(CCNC(=O)c2cc(-c3cc(Cl)ccc3O)n[nH]2)cc1OC |  | inconclusive: 12.6 µM [falling, partial curve, poor fit]
CC(O)C(NC(=O)OCc1ccccc1)C(=O)OCc1ccccc1 (stereo not given) | inconclusive: 3.01% | 
CC(C)c1ccc(NC(=O)C[n+]2ccn(C3=C([O-])c4ccccc4C3=O)c2)cc1 | inactive: 9.54% | 
COc1ccccc1/C=C1\SC(=S)N(CC(=O)NC2CCS(=O)(=O)C2)C1=O (stereo not given) |  | inconclusive: 14.1 µM [falling, partial curve, poor fit]
COc1ccccc1C(=O)NC(C)c1cccc2ccccc12 (stereo not given) | inactive: -1.83% | 
CCOC(=O)c1ccc(N2Cc3ccccc3C2=N)cc1 |  | inconclusive: 29.1 µM [falling, single point]
COc1ccc(N2CCN(CC(=O)c3ccccc3)CC2)cc1 | inactive: -1.44% | 
Cc1ccc(C(=O)/C=C/c2c[nH]c3ccccc23)cc1 |  | inconclusive: 22.4 µM [falling, single point]
COc1ccc(NC(=O)CN(C)C(=O)CNC(=O)c2ccc3ccccc3c2)cc1 |  | inconclusive: 18.4 µM [falling, partial curve, poor fit]
Brc1ccc(-c2nc(-c3cccnc3)no2)o1 | inconclusive: 5.5% | 
CCCOC(=O)c1ccc(NC(=O)CCOc2ccccc2)cc1 |  | inconclusive: 0.731 µM [activator, full curve]
C=CCN1CCN(C(c2ccccc2)c2nnnn2CCC(C)C)CC1 (stereo not given) | inconclusive: -3.8% | 
CC1CCCN(CCOCCOc2ccccc2-c2ccccc2)C1 (stereo not given) | inconclusive: -11.4% | 
COc1cc(/C=C2\SC(=S)N(NS(=O)(=O)c3ccccc3)C2=O)cc(OC)c1OC |  | inconclusive: 15.8 µM [falling, single point]
O=C(CSCc1cccc(Cl)c1)N1CCN(Cc2ccc3c(c2)OCO3)CC1 | inconclusive: -10.6% | 
CCOCC(=O)Nc1nc2ccc(OC)cc2s1 |  | inconclusive: 29.1 µM [falling, single point]
O=Cc1cc2ccccc2nc1SCCCF |  | inconclusive: 28.2 µM [falling, single point]
CC1CCC(NC(=O)CCS(=O)(=O)c2ccc3c(c2)NC(=O)CS3)CC1 (stereo not given) | inactive: 3.1% | 
CCCCC(=O)Nc1nn(CC(C)C)c2nc3ccccc3cc12 | inactive: 1.81% | 
O=[N+]([O-])c1cccc(S(=O)(=O)[N-]c2nc3ccccc3nc2-n2cc[n+](Cc3ccccc3)c2)c1 |  | inconclusive: 3.16 µM [rising, single point]
CCOC(=O)N1C/C(=C\c2ccccc2)C(=O)/C(=C/c2ccccc2)C1 |  | inconclusive: 0.794 µM [falling, full curve]
COc1ccccc1CCC(=O)NNC(=O)c1cccs1 |  | inconclusive: 23.1 µM [falling, partial curve]
O=C1CSC(=S)N1/N=C/c1cc(Br)c(O)c(Br)c1 | inconclusive: 13.3% | 

Among those listed so far, these contain a Cl atom.
Compound | activity change, negative = inhibition | Potency
COc1ccc(CCNC(=O)c2cc(-c3cc(Cl)ccc3O)n[nH]2)cc1OC |  | inconclusive: 12.6 µM [falling, partial curve, poor fit]
O=C(CSCc1cccc(Cl)c1)N1CCN(Cc2ccc3c(c2)OCO3)CC1 | inconclusive: -10.6% | 

Later entries

Compound | activity change, negative = inhibition | Potency
Cc1ccc(NC2=C(Cl)C(=O)OC2OC(=O)c2ccccc2)c(C)c1 (stereo not given) | inconclusive: 14.9% | 
Fc1cccc(Cl)c1Cn1nnc2c(NCc3ccncc3)ncnc21 | inactive: 10.7% | 
CC(=O)Nc1nc(C=C(Cl)Cl)cs1 |  | inconclusive: 8.2 µM [rising, partial curve, poor fit]
Cn1nc(C(=O)Nc2ccc3c(c2)OCCO3)c2ccccc2c1=O | inconclusive: 0.814% | 
CC(C)N=C(NS(=O)(=O)c1ccc(Br)cc1)c1ccc(Cl)cc1 | inactive: -0.851% | 
O=C(NCc1ccc2c(c1)OCO2)c1ccc2c(c1)N(Cc1ccccc1F)C(=O)c1ccccc1S2 | inconclusive: 8.73% | 
Cc1cc(C(=O)NN=Cc2ccc(OC(=O)c3ccco3)cc2)c(C)o1 |  | inconclusive: 23.1 µM [falling, partial curve]
CCCn1cnc2cc(NC(=O)c3ccco3)ccc21 |  | inconclusive: 3.16 µM [falling, single point]
CCC(=O)C1=C(c2ccc(F)cc2)N(C(=O)CC)n2cnnc2S1 |  | inconclusive: 12.6 µM [falling, partial curve]
Cc1nc2[nH]c(=S)n(C)c(=O)c2nc1C | inactive: 3.19% | 
Cn1nnnc1SCC(=O)Nc1ccccc1C(N)=O | inconclusive: 5.36% | 
CSc1nc(N(CCO)CCO)c2sc3nc(-c4ccco4)c4c(c3c2n1)CCC4 | inactive: 6.53% | 
C/C(=C\C(=O)c1ccc(Br)cc1)NCc1ccc(C)cc1 |  | inconclusive: 32.6 µM [falling, partial curve, poor fit]
CC1CCC(NC(=O)c2cccc(S(=O)(=O)N3CCN(C)CC3)c2)CC1 (stereo not given) | inconclusive: 2.82% | 
CC(=O)N1c2ccc(S(=O)(=O)N(C)CC(=O)NCc3ccccc3)cc2CC1C (stereo not given) | inactive: -5.8% | 
CC(C)(C)c1nnc2sc(SCC(=O)N3CCCc4ccccc43)nn2c1=O | inconclusive: 4.43% | 
Cc1ccc(NC(=O)CSc2nnc(/N=C/N(C)C)s2)cc1 | inactive: -0.586% | 
CC(C)Nc1nc2ccccc2c(=O)[nH]1 | inconclusive: -9.71% | 
O=C(NCC(O)c1ccccc1)c1ccccc1 (stereo not given) |  | inconclusive: 35.5 µM [rising, single point]
CCCCn1c(=NC(=O)c2cccnc2)c(C(=O)OCC)cc2c(=O)n3ccccc3nc21 | inactive: 17.3% | 
CCn1c(-c2nonc2NC(=O)c2ccccc2)nc2ccccc21 |  | inconclusive: 0.1 µM [falling, full curve, poor fit]
O=C(Cn1cnc2ccccc2c1=O)NNC(=O)c1ccccc1 | inconclusive: -23.5% | 
COc1ccc(OCc2nnc3n2N=C(c2ccccc2)C(CC(=O)O)S3)cc1 (stereo not given) | inconclusive: 3.18% | 
Cc1ccc2c(c1)N(C(=O)CCC(=O)NCCCN1CCC(Cc3ccccc3)CC1)CCO2 |  | inconclusive: 4.47 µM [falling, partial curve, poor fit]
COc1ccc(C(C(=O)NCc2ccccc2)N(C(=O)c2snc(C(N)=O)c2N)c2ccccc2OC)cc1OC (stereo not given) |  | inconclusive: 35.5 µM [falling, single point]
COc1ccc2cc1Oc1ccc(cc1)C[C@H]1c3cc(c(OC)cc3CCN1C)Oc1c(OC)c(OC)cc3c1[C@H](C2)N(C)CC3 |  | inconclusive: 10 µM [falling, partial curve]
C/C(N)=C(/C#N)C(=O)CSc1nnnn1-c1ccccc1 | inconclusive: 1.59% | 

Compound | activity change, negative = inhibition | Potency
COc1ccc(/C=C2\SC(=S)N(c3cccnc3)C2=O)cc1 | inconclusive: 14.1% | 
COc1cc(/C=N/NC(=O)c2ccncc2)ccc1OC(=O)c1cccc(Br)c1 | inactive: -3.22% | 
NC(=O)c1nsc(C(=O)N(c2cccc(F)c2)C(C(=O)NCC2CCCO2)c2c[nH]c3ccccc23)c1N (stereo not given) |  | inconclusive: 1.26 µM [rising, full curve]
CCOC(=O)C1(Cc2ccccc2)CCN(Cc2ccc(COC)o2)CC1 |  | inconclusive: 1.12 µM [falling, partial curve, poor fit]
S=c1nc(C2CCCCC2)n(-c2ccccc2)[nH]1 | inactive: 2.49% | 
Cc1ccc(CN2CC(C(=O)Nc3cc(C)ccn3)CC2=O)cc1 (stereo not given) | inconclusive: -1.22% | 
Cc1cc(=O)[nH]c(Nc2ccccc2C)n1 | inconclusive: 5.34% | 
CC(C)OC(=O)NC(C)(C)COC(=O)Nc1cccc(Cl)c1 | inconclusive: 8.33% | 
CSc1sc(-c2nnc(SCC(=O)Nc3ccccc3)n2C)c2c1C=CCC2 | inconclusive: 2.84% | 
COc1ccc(C(=O)N/N=C/c2ccccn2)cc1OC |  | inconclusive: 35.5 µM [falling, single point]
COCCn1c(CN2CCN(C(=O)c3ccco3)CC2)nc2c1c(=O)n(C)c(=O)n2C | inactive: 5.74% | 
Cc1c(CC(=O)NCCCCCC(=O)O)c(=O)oc2cc3occ(-c4ccccc4)c3cc12 | inconclusive: -4.29% | 
CCCc1nn(-c2cc(Cl)ccc2OC)c2c1C(=O)CC(C)(C)C2 | inconclusive: -3.47% | 
Cc1ccc(CN(c2ccc(C(=O)N3CCc4ccccc4C3)cc2)S(C)(=O)=O)cc1 | inconclusive: -15.8% | 
Cc1onc(-c2ccccc2Cl)c1C(=O)OCC(=O)c1ccc[nH]1 | inconclusive: 1.19% | 
COc1cc(/C=C/C(=O)O)cc(S(=O)(=O)N2CCN(S(=O)(=O)c3ccc(Cl)cc3)CC2)c1OC | inactive: -4.77% | 
Clc1ccc(CSc2ncnc3nc[nH]c23)cc1 | inconclusive: -2.71% | 
CC(=O)c1cccc(NC(=O)COC(=O)c2ccccc2C)c1 | inactive: -15.3% | 
N#Cc1c(NC(=O)CSc2nnc(-c3ccco3)n2-c2ccccc2)sc2c1CCC2 |  | inconclusive: 16.4 µM [rising, single point]
CN1CC2CCCC3(C1)C(=O)NC1(CCCCC1)N=C23 (stereo not given) | inconclusive: -7.06% | 
CCn1c2ccccc2c(=O)c2ccccc21 | inactive: -12.3% | 
Cc1cc(=O)oc2cc(OCC3CC(c4ccccc4Cl)=NO3)ccc12 (stereo not given) | inconclusive: -17.4% | 
Fc1ccc(COc2ccc(-c3nnco3)cc2)c(Cl)c1 | inconclusive: 5.56% | 
CCc1cc2c(CN3CCN(Cc4ccccc4)CC3)cc(=O)oc2cc1O | inactive: 3.36% | 
C/C(=N\NC(=O)c1nnn(-c2nonc2N)c1C(C)C)c1cc(C)sc1C | inactive: 15.2% | 
CCn1c(CNC(=O)c2ccco2)nnc1SCC(=O)Nc1ccc(Br)cc1F |  | inconclusive: 4.11 µM [falling, partial curve, poor fit]

One compound at a time, as listed above:
CC(=O)c1cccc(NC(=O)COC(=O)c2ccccc2C)c1 reads activity change, negative = inhibition: inactive: -15.3%
Cc1cc(=O)oc2cc(OCC3CC(c4ccccc4Cl)=NO3)ccc12 (stereo not given) reads activity change, negative = inhibition: inconclusive: -17.4%
COCCn1c(CN2CCN(C(=O)c3ccco3)CC2)nc2c1c(=O)n(C)c(=O)n2C reads activity change, negative = inhibition: inactive: 5.74%
